In assay [1] the target is SMCHD1 ΔHinge (FLAG- or HA-tagged, HEK293T) (mouse) (UniProt Q6P5D8). Put plainly: co-IP; HEK293T cotransfected with C-terminally HA- and FLAG-tagged SMCHD1 or its derivatives; IP from nuclear extract (150 mM NaCl, 50 mM Tris pH 7.5, 0.05% NP-40, protein A magnetic beads, 4 h, 4°C), Western blot. Background: A western blot detects proteins with antibodies after separation by electrophoresis.

The target in assay [2] is SMCHD1-FLAG (transfected into HEK293T cells) (mouse) (UniProt Q6P5D8). The description is as above.
Assay [3] deals with SMCHD1 E147A (FLAG- or HA-tagged, HEK293T) (mouse) (UniProt Q6P5D8). The description is as above.
The target in assay [4] is SMCHD1 hinge domain AAA mutant (residues 1616 to 1963, G1872A, G1875A, G1876A) (mouse) (UniProt Q6P5D8). Put plainly: SEC; affinity-purified wild-type and mutant hinge domains on a Superdex 75 10/300 column, 0.5-ml fractions, A280 and Coomassie-stained SDS-PAGE; both purified. (SEC sorts molecules by how far they enter the pores of the column.)

No constants are given. Whether binding was seen depends on the method and setting. For some of these results: Binding seen in cells or lysates may run through a third protein. Some results given as binding are weak or reduced against the parent protein; the word gives no strength.

Regarding “SMCHD1 ΔHinge (FLAG- or HA-tagged, HEK293T) (from UniProt Q6P5D8 1-2007)”, in assay [1], the binding entry is “no binding”.

As to “SMCHD1-FLAG (transfected into HEK293T cells) (from UniProt Q6P5D8 1-2007)”, the binding entry in assay [2] is listed as “binds”. In the case of “SMCHD1 E147A (FLAG- or HA-tagged, HEK293T) (from UniProt Q6P5D8 1-2007)”, the binding entry in assay [3] is reported as “binds”.

B1: SMCHD1 hinge domain AAA mutant (residues 1616 to 1963, G1872A, G1875A, G1876A) (domain or fragment, UniProt Q6P5D8 1616-1963)
chain: NDVKKQQQMAALTKEKDELSKSITMYRSLFDANKQLVDEMKCQAEEAKLKETQLRNELKAYNIDIPATQQTTHIEALLEKKITEQNELKKRPRRLCTLPNYTKRSGDILGKIAHLAQIEDDRAAMVISWHLASDMDCVVTLTTDAARAIYDETQGRQQVLPLDSIYRKTLPDWKRPLPHFRNGKLHFKPFGNPVFARDLLTFPDNIEHCETVFGMLLGDTIILDNLDAANHYRKEVVKITHCPTLLTRDGDRIRSNAKFAALQNKAPPMDKLRGMVFGAPVPKQCVVLGKQIDLIQQYRTALYRLSSVNEDLDNQLQYLHTPDMKKKKQELDEQEKSLKRIEQKLGMT
With B1, in assay [4], the binding entry is “no binding”.

The values above are taken from PMC4628070, “Independent Mechanisms Target SMCHD1 to Trimethylated Histone H3 Lysine 9-Modified Chromatin and the Inactive X Chromosome” (Molecular and Cellular Biology, 2015).
